doi:10.1101/2020.04.09.033597
No constants are given. Whether binding was seen depends on the method and setting. In cells and extracts the contact can be indirect. Some binding calls cover weakened binding; strength is not graded here.

Amino acid sequences for entries named in this document (tags omitted). A change or cut given only in a name is not applied to a line headed by its entry. Residues count along the entry.
UniProt Q7Z434: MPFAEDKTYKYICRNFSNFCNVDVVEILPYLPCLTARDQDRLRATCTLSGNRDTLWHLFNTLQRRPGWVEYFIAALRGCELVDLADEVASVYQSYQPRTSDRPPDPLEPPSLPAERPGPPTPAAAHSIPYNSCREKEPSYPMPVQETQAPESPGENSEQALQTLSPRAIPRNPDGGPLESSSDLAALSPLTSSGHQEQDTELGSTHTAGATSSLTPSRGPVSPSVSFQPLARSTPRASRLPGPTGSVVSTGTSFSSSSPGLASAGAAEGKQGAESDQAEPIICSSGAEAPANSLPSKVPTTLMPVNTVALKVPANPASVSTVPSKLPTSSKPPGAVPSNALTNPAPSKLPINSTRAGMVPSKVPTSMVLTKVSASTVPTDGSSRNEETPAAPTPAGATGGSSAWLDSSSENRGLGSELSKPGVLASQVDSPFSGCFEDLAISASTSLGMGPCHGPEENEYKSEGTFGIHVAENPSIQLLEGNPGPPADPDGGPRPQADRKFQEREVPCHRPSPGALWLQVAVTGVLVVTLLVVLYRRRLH
Myc-IPS-1 (amino acids 1-98), fragment containing CARD: residues 1-98 of Q7Z434
Myc-IPS-1 (amino acids 99-200), fragment containing the proline-rich domain: residues 99-200 of Q7Z434
Myc-IPS-1 (amino acids 201-540), fragment containing the COOH-terminal domain including the TM domain: residues 201-540 of Q7Z434
UniProt Q9CQF3: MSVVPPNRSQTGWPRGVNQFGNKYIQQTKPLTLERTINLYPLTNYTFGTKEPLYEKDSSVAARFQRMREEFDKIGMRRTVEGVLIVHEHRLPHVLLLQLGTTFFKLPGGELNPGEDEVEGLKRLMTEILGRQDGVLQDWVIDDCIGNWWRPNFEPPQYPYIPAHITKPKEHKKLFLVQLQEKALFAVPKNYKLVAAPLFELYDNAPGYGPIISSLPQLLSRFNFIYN

How the values were obtained:
Assay in all cases: co-IP
[1] = biological target: FLAG epitope-tagged IPS-1 (WT human IPS-1, pEF-BOS-FLAG-IPS-1) (human) (UniProt Q7Z434)
[2] = biological target: Myc-IPS-1 (amino acids 99-200), fragment containing the proline-rich domain (human) (UniProt Q7Z434)
[3] = biological target: Myc-IPS-1 (amino acids 1-98), fragment containing CARD (human) (UniProt Q7Z434)
[4] = biological target: Myc-IPS-1 (amino acids 201-540), fragment containing the COOH-terminal domain including the TM domain (human) (UniProt Q7Z434)

| Substance | binding [1] | binding [2] | binding [3] | binding [4] |
| --- | --- | --- | --- | --- |
| Myc epitope-tagged NUDT21 (from UniProt Q9CQF3 1-227) | binds | – | – | – |
| hemagglutinin epitope (HA)-tagged NUDT21 (from UniProt Q9CQF3 1-227) | – | binds | binds | no binding |
